# This is one part of the list.
# B1: Pbx2CASH domain (Cryptococcus neoformans) (protein)
# chain: GIPGPNRLYRLSGPIIFTAADQEIATYGYPTGSERAVLRVEGRNTATAIQGDCRRCARVSVKNLVVDGNRKKLGRMRDFQLATGLVVLGGNEGQSIQNSWIKNPRGFTAIHIREGDKLQCSGARVEKNEIGPVGEEYDPEKDGDDPEMSPLGRPLADGVSIACRDSFIRDNTFRDNTDAAIVVYCSPGTLIHA
# Legend:
# Test in all cases: glycan array binding signal (z-score within array); higher = stronger binding
# Conditions in all cases: glycan notation: IUPAC condensed, linker removed
# [1] = target: Gal(b1-4)Glc6S
# How it was run: (§1)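 The binding signal is a Z-score computed within each array. Data were drawn from 3228 arrays in the Consortium for Functional Glycomics database, restricted to those with a known protein sequence. Scores were averaged over arrays of the same protein sequence at different concentrations or buffers, and over linkers, and negative values can be taken as non-binding.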
# [2] = target: Gal(b1-4)GlcNAc
# How it was run: as §1
# [3] = target: Gal(b1-4)GlcNAc(a1-6)Gal(b1-4)GlcNAc
# How it was run: as §1
# [4] = target: Gal(b1-4)GlcNAc(b1-2)Man
# How it was run: as §1
# [5] = target: Gal(b1-4)GlcNAc(b1-2)Man(a1-3)Man(b1-4)GlcNAc(b1-4)GlcNAc
# How it was run: as §1
# [6] = target: Gal(b1-4)GlcNAc(b1-2)Man(a1-3)[Gal(b1-4)GlcNAc(b1-2)Man(a1-6)]Man(b1-4)GlcNAc(b1-4)GlcNAc
# How it was run: as §1
# [7] = target: Gal(b1-4)GlcNAc(b1-2)Man(a1-3)[Gal(b1-4)GlcNAc(b1-2)Man(a1-6)]Man(b1-4)GlcNAc(b1-4)[Fuc(a1-6)]GlcNAc
# How it was run: as §1
# [8] = target: Gal(b1-4)GlcNAc(b1-2)Man(a1-3)[Gal(b1-4)GlcNAc(b1-2)Man(a1-6)][Gal(b1-4)GlcNAc(b1-4)]Man(b1-4)GlcNAc(b1-4)[Fuc(a1-6)]GlcNAc
# How it was run: as §1
# [9] = target: Gal(b1-4)GlcNAc(b1-2)Man(a1-3)[Gal(b1-4)GlcNAc(b1-2)Man(a1-6)][GlcNAc(b1-4)]Man(b1-4)GlcNAc(b1-4)[Fuc(a1-6)]GlcNAc
# How it was run: as §1
# [10] = target: Gal(b1-4)GlcNAc(b1-2)Man(a1-3)[GlcNAc(b1-2)Man(a1-6)]Man(b1-4)GlcNAc(b1-4)GlcNAc
# How it was run: as §1
# [11] = target: Gal(b1-4)GlcNAc(b1-2)Man(a1-3)[GlcNAc(b1-4)][Gal(b1-4)GlcNAc(b1-2)Man(a1-6)]Man(b1-4)GlcNAc(b1-4)GlcNAc
# How it was run: as §1
# [12] = target: Gal(b1-4)GlcNAc(b1-2)Man(a1-3)[Man(a1-6)]Man(b1-4)GlcNAc(b1-4)GlcNAc
# How it was run: as §1
# [13] = target: Gal(b1-4)GlcNAc(b1-2)Man(a1-6)Man(b1-4)GlcNAc(b1-4)GlcNAc
# How it was run: as §1
# [14] = target: Gal(b1-4)GlcNAc(b1-2)Man(a1-6)[GlcNAc(b1-2)Man(a1-3)]Man(b1-4)GlcNAc(b1-4)GlcNAc
# How it was run: as §1
# [15] = target: Gal(b1-4)GlcNAc(b1-2)Man(a1-6)[Man(a1-3)]Man(b1-4)GlcNAc(b1-4)GlcNAc
# How it was run: as §1
# [16] = target: Gal(b1-4)GlcNAc(b1-2)[Gal(b1-4)GlcNAc(b1-4)]Man(a1-3)[Gal(b1-4)GlcNAc(b1-2)Man(a1-6)]Man(b1-4)GlcNAc(b1-4)GlcNAc
# How it was run: as §1
# [17] = target: Gal(b1-4)GlcNAc(b1-2)[Gal(b1-4)GlcNAc(b1-4)]Man(a1-3)[Gal(b1-4)GlcNAc(b1-2)[Gal(b1-4)GlcNAc(b1-6)]Man(a1-6)]Man(b1-4)GlcNAc(b1-4)GlcNAc
# How it was run: as §1
# [18] = target: Gal(b1-4)GlcNAc(b1-2)[Gal(b1-4)GlcNAc(b1-4)]Man(a1-3)[GlcNAc(b1-4)][Gal(b1-4)GlcNAc(b1-2)Man(a1-6)]Man(b1-4)GlcNAc(b1-4)GlcNAc
# How it was run: as §1
# [19] = target: Gal(b1-4)GlcNAc(b1-2)[Gal(b1-4)GlcNAc(b1-4)]Man(a1-3)[GlcNAc(b1-4)][Gal(b1-4)GlcNAc(b1-2)[Gal(b1-4)GlcNAc(b1-6)]Man(a1-6)]Man(b1-4)GlcNAc(b1-4)GlcNAc
# How it was run: as §1
# [20] = target: Gal(b1-4)GlcNAc(b1-2)[Gal(b1-4)GlcNAc(b1-6)]Man(a1-6)[Gal(b1-4)GlcNAc(b1-2)Man(a1-3)]Man(b1-4)GlcNAc(b1-4)GlcNAc
# How it was run: as §1
# [21] = target: Gal(b1-4)GlcNAc(b1-2)[Gal(b1-4)GlcNAc(b1-6)]Man(a1-6)[Gal(b1-4)GlcNAc(b1-2)Man(a1-3)]Man(b1-4)GlcNAc(b1-4)[Fuc(a1-6)]GlcNAc
# How it was run: as §1
# [22] = target: Gal(b1-4)GlcNAc(b1-2)[Gal(b1-4)GlcNAc(b1-6)]Man(a1-6)[GlcNAc(b1-4)][Gal(b1-4)GlcNAc(b1-2)Man(a1-3)]Man(b1-4)GlcNAc(b1-4)GlcNAc
# How it was run: as §1
binder,measurement,setting,value
B1,glycan array binding signal (z-score),[1],0.292
same,glycan array binding signal (z-score),[2],-0.557
same,glycan array binding signal (z-score),[3],-0.503
same,glycan array binding signal (z-score),[4],-0.471
same,glycan array binding signal (z-score),[5],-0.427
same,glycan array binding signal (z-score),[6],-0.501
same,glycan array binding signal (z-score),[7],-0.487
same,glycan array binding signal (z-score),[8],-0.745
same,glycan array binding signal (z-score),[9],-0.124
same,glycan array binding signal (z-score),[10],-0.104
same,glycan array binding signal (z-score),[11],0.173
same,glycan array binding signal (z-score),[12],-0.368
same,glycan array binding signal (z-score),[13],-0.46
same,glycan array binding signal (z-score),[14],-0.31
same,glycan array binding signal (z-score),[15],1
same,glycan array binding signal (z-score),[16],-0.138
same,glycan array binding signal (z-score),[17],-0.598
same,glycan array binding signal (z-score),[18],-0.355
same,glycan array binding signal (z-score),[19],0.057
same,glycan array binding signal (z-score),[20],-0.632
same,glycan array binding signal (z-score),[21],0.36
same,glycan array binding signal (z-score),[22],-0.049

# As a short view, some entries already given.
binder,measurement,setting,value
B1,glycan array binding signal (z-score),[8],-0.745
same,glycan array binding signal (z-score),[9],-0.124
